Assay results taken from publication PMC11951516.
Results are given in words; binding and its absence hold for the method and conditions named. Binding seen in cells or lysates may run through a third protein. A yes stands for co-enrichment or nearness to the bait. Other partners may have been found.

The chains behind the UniProt entries cited, without tags or fusion partners.
UniProt O43524: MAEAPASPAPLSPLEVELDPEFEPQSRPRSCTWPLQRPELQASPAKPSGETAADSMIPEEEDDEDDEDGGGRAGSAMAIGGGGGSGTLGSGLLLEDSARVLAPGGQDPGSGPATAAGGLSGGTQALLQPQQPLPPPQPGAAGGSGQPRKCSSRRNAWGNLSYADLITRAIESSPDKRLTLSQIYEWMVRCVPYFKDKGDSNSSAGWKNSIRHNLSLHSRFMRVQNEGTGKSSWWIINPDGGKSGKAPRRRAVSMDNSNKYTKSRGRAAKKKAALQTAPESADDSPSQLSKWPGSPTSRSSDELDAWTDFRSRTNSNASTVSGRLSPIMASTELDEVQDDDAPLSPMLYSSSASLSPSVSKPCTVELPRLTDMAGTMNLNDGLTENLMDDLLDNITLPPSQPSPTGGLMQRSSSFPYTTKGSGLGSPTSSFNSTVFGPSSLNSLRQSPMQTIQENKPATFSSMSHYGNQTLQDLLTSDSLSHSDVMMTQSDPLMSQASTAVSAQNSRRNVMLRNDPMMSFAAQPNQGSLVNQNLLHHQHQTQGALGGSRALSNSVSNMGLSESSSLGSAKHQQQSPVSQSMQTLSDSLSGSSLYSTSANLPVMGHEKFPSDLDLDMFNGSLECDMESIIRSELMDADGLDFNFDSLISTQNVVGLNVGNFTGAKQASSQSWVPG
UniProt Q13547: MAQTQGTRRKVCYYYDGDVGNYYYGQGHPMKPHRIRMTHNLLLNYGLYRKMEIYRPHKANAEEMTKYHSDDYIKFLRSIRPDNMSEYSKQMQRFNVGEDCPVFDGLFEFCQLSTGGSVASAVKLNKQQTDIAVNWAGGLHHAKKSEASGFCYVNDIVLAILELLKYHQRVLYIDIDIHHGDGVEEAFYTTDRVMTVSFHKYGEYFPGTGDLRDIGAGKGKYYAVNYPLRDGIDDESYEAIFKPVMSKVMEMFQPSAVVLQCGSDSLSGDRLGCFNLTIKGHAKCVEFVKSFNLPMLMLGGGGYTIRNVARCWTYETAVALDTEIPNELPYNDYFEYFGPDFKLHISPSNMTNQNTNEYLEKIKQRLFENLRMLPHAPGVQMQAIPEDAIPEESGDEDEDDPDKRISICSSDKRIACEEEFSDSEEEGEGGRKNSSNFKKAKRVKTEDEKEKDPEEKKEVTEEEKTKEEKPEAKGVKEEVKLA

Biological target: activated form of FOXO3 (p-FOXO3 Ser413) (human (endogenous in HUDEP-2)) (UniProt O43524)
Test: affinity purification with mass spectrometry; immunoprecipitation with anti-FOXO3 ser413 antibody or IgG from wild type and insA clone HUDEP-2 cells (3 x 10^7), RIPA lysis buffer, 4 °C, protein A/G plus agarose, washed 4 times with PBS; Q Exactive HF, MaxQuant

Substance: HDAC1 (from UniProt Q13547 1-482)
- binding: binds
